PubChem BioAssay AID1259308, NCATS | 2017
In all, the deposit lists about 59,000 reagents; shown is a random part of them. About 1,510 of them (2.6%) were called active. 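Calls use total luciferase alone and ignore viability, so some active siRNAs may act by altering cell number.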 The numbers tell different reagents against one gene apart. Further read-outs or replicates are left out here.

Assay: 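Genes whose loss raises luciferase production in HEK293 cells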 (primary screen)
Cell system: human HEK293 embryonic kidney cells stably expressing firefly luciferase (HEK-CMV-Luc2-Hygro)
Reagents: single siRNA against human genes, 0.8 pmol siRNA per well
Duration: 72 h
Detection: 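Luciferase light (ONE-Glo) measured on one replicate plate set and viability (CellTiter-Glo) on the other, scaled to a negative control siRNA, with robust z-scores and luciferase per cell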
Reading the numbers: total luciferase, z-score and total luciferase, % of control: higher = more reporter protein produced; luciferase per cell, z-score: higher = more reporter output per viable cell
Hit rule: 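Active when the median/MAD z-score for overall luciferase is greater than 3; a gene was taken forward for validation with new siRNAs if at least two of its three siRNAs passed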
Calls: active = raised luciferase; inactive = no rise

no.	gene	reagent	total luciferase, z-score	total luciferase, % of control	luciferase per cell, z-score	Outcome
1	SIGLEC7 (GeneID 27036)	1	-0.693	68.1	-0.114	inactive
2	SIGLEC7 (GeneID 27036)	2	-0.281	76.3	-0.053	inactive
3	SIGLEC7 (GeneID 27036)	3	1.01	102	1.34	inactive
4	TMEM120A (GeneID 83862)	1	-0.586	70.2	-0.811	inactive
5	TMEM120A (GeneID 83862)	2	-0.0543	80.8	-0.241	inactive
6	TMEM120A (GeneID 83862)	3	-0.149	78.9	-0.432	inactive
7	LMO3 (GeneID 55885)	1	-0.0482	80.9	0.329	inactive
8	LMO3 (GeneID 55885)	2	-0.0489	80.9	-0.142	inactive
9	LMO3 (GeneID 55885)	3	0.949	101	0.549	inactive
10	AP3M2 (GeneID 10947)	1	-0.321	75.5	0.402	inactive
11	AP3M2 (GeneID 10947)	2	-0.555	70.8	-0.288	inactive
12	AP3M2 (GeneID 10947)	3	6.11	203	3.46	active
13	DEFB109B (GeneID 641517)	1	0.0307	82.5	-0.205	inactive
14	DEFB109B (GeneID 641517)	2	-1.51	51.9	-1.91	inactive
15	DEFB109B (GeneID 641517)	3	-0.797	66	-0.47	inactive
16	MPG (GeneID 4350)	1	0.0563	83	-0.746	inactive
17	MPG (GeneID 4350)	2	0.996	102	0.765	inactive
18	MPG (GeneID 4350)	3	2.43	130	1.9	inactive
19	STRADBP1 (GeneID 389599)	1	-1.59	50.3	-0.857	inactive
20	STRADBP1 (GeneID 389599)	2	-0.462	72.7	-0.573	inactive
21	STRADBP1 (GeneID 389599)	3	0.251	86.9	0.508	inactive
22	HOOK1 (GeneID 51361)	1	-0.0404	81.1	-0.575	inactive
23	HOOK1 (GeneID 51361)	2	-0.613	69.7	-0.404	inactive
24	HOOK1 (GeneID 51361)	3	1.67	115	1.67	inactive
25	TTLL9 (GeneID 164395)	1	1.39	110	2.52	inactive
26	TTLL9 (GeneID 164395)	2	0.346	88.8	0.057	inactive
27	TTLL9 (GeneID 164395)	3	-0.213	77.7	-0.719	inactive
28	CT47A11 (GeneID 255313)	1	-1.7	48.1	-1.36	inactive
29	CT47A11 (GeneID 255313)	2	0.327	88.4	0.362	inactive
30	CT47A11 (GeneID 255313)	3	-0.613	69.7	-0.674	inactive
31	PNLIPRP2 (GeneID 5408)	1	-0.917	63.7	-0.391	inactive
32	PNLIPRP2 (GeneID 5408)	2	1.95	121	1.48	inactive
33	PNLIPRP2 (GeneID 5408)	3	-2.12	39.7	-1.63	inactive
34	DUSP1 (GeneID 1843)	1	1.08	103	1.86	inactive
35	DUSP1 (GeneID 1843)	2	-0.551	70.9	-0.85	inactive
36	DUSP1 (GeneID 1843)	3	-0.846	65.1	-0.378	inactive
37	FBRS (GeneID 64319)	1	4.44	170	3.42	active
38	FBRS (GeneID 64319)	2	0.893	99.6	0.747	inactive
39	FBRS (GeneID 64319)	3	0.695	95.7	0.922	inactive
40	ABCC11 (GeneID 85320)	1	0.219	86.2	-0.359	inactive
41	ABCC11 (GeneID 85320)	2	-0.0348	81.2	0.148	inactive
42	ABCC11 (GeneID 85320)	3	-0.49	72.1	-0.853	inactive
43	SLCO1B7 (GeneID 338821)	1	0.504	91.9	-0.304	inactive
44	SLCO1B7 (GeneID 338821)	2	-1.7	48.1	-2.02	inactive
45	SLCO1B7 (GeneID 338821)	3	0.158	85	0.179	inactive
46	SSU72L6 (GeneID 136157)	1	0.434	90.5	0.323	inactive
47	SSU72L6 (GeneID 136157)	2	-0.665	68.7	-0.837	inactive
48	SSU72L6 (GeneID 136157)	3	0.239	86.6	0.148	inactive
49	HOOK3 (GeneID 84376)	1	-1	62	-1.29	inactive
50	HOOK3 (GeneID 84376)	2	-0.684	68.3	-0.66	inactive
51	HOOK3 (GeneID 84376)	3	0.332	88.5	-0.0195	inactive
52	LOC646736 (GeneID 646736)	1	1.06	103	0.913	inactive
53	LOC646736 (GeneID 646736)	2	3.47	151	3.7	active
54	LOC646736 (GeneID 646736)	3	-2.71	27.9	-3.12	inactive
55	SLC24A5 (GeneID 283652)	1	0.041	82.7	-0.286	inactive
56	SLC24A5 (GeneID 283652)	2	-0.0883	80.1	-0.262	inactive
57	SLC24A5 (GeneID 283652)	3	1.05	103	0.198	inactive
